Measurements published in PMC6318328, “Structural insights into trans-histone regulation of H3K4 methylation by unique histone H4 binding of MLL3/4” (Nature Communications, 2019).
These are yes or no findings as the source states them, for the method shown.

T1: MLL3_(ePHD6)_(1055–1144) (human) (UniProt Q8NEZ4)
T1 sequence: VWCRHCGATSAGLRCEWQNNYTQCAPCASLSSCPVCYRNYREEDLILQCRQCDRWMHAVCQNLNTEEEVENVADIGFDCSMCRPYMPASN


How the values were obtained:
[1] = molecular target: T1, MLL3_(ePHD6)_(1055–1144) (human); experiment: SEC; gel-filtration profiles of the purified domains (Supplementary Fig. 3); both purified
[2] = molecular target: T1, MLL3_(ePHD6)_(1055–1144) (human); experiment: crystal structure; MLL3 ePHD6 mixed with histone H4 peptide (residues 1–20) at a molar ratio 1:3; sitting drop, 18 °C; 2 M sodium formate, 0.1 M Tris pH 8.5; 1.80 Å; both purified
[3] = molecular target: MLL3_(PHD6)_(1085–1144) (human) (UniProt Q8NEZ4); experiment: SEC; gel-filtration profiles of the purified domains (Supplementary Fig. 3); both purified

binding [1]	binding [2]	binding [3]	Binder
no binding	no binding	–	MLL3_(ePHD6)_(1055–1144) (domain or fragment, UniProt Q8NEZ4 1055-1144) VWCRHCGATSAGLRCEWQNNYTQCAPCASLSSCPVCYRNYREEDLILQCRQCDRWMHAVCQNLNTEEEVENVADIGFDCSMCRPYMPASN
–	–	no binding	MLL3_(PHD6)_(1085–1144) (domain or fragment, UniProt Q8NEZ4 1085-1144) SSCPVCYRNYREEDLILQCRQCDRWMHAVCQNLNTEEEVENVADIGFDCSMCRPYMPASN
